According to publication PMC12767095:
These are yes or no findings as the source states them, for the method shown. Binding seen in cells or lysates may run through a third protein. These calls come from enrichment with a bait or labelling near it, and not all partners need be listed.

Amino acid sequences for entries named in this document (tags omitted).
UniProt Q04206: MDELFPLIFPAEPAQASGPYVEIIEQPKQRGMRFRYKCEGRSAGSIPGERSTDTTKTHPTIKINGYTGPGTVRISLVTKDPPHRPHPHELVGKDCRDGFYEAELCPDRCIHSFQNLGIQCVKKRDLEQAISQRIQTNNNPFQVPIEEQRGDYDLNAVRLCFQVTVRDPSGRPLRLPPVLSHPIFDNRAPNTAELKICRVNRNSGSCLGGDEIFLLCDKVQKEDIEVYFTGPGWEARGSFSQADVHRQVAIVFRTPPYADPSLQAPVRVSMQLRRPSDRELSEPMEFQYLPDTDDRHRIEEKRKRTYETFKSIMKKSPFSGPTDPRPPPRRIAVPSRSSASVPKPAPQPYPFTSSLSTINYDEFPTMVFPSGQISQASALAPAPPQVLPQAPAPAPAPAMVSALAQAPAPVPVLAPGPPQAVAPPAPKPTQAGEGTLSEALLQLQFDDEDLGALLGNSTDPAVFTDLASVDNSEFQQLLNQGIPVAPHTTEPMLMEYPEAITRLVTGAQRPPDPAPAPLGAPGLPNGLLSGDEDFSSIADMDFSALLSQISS
UniProt Q7Z6E9: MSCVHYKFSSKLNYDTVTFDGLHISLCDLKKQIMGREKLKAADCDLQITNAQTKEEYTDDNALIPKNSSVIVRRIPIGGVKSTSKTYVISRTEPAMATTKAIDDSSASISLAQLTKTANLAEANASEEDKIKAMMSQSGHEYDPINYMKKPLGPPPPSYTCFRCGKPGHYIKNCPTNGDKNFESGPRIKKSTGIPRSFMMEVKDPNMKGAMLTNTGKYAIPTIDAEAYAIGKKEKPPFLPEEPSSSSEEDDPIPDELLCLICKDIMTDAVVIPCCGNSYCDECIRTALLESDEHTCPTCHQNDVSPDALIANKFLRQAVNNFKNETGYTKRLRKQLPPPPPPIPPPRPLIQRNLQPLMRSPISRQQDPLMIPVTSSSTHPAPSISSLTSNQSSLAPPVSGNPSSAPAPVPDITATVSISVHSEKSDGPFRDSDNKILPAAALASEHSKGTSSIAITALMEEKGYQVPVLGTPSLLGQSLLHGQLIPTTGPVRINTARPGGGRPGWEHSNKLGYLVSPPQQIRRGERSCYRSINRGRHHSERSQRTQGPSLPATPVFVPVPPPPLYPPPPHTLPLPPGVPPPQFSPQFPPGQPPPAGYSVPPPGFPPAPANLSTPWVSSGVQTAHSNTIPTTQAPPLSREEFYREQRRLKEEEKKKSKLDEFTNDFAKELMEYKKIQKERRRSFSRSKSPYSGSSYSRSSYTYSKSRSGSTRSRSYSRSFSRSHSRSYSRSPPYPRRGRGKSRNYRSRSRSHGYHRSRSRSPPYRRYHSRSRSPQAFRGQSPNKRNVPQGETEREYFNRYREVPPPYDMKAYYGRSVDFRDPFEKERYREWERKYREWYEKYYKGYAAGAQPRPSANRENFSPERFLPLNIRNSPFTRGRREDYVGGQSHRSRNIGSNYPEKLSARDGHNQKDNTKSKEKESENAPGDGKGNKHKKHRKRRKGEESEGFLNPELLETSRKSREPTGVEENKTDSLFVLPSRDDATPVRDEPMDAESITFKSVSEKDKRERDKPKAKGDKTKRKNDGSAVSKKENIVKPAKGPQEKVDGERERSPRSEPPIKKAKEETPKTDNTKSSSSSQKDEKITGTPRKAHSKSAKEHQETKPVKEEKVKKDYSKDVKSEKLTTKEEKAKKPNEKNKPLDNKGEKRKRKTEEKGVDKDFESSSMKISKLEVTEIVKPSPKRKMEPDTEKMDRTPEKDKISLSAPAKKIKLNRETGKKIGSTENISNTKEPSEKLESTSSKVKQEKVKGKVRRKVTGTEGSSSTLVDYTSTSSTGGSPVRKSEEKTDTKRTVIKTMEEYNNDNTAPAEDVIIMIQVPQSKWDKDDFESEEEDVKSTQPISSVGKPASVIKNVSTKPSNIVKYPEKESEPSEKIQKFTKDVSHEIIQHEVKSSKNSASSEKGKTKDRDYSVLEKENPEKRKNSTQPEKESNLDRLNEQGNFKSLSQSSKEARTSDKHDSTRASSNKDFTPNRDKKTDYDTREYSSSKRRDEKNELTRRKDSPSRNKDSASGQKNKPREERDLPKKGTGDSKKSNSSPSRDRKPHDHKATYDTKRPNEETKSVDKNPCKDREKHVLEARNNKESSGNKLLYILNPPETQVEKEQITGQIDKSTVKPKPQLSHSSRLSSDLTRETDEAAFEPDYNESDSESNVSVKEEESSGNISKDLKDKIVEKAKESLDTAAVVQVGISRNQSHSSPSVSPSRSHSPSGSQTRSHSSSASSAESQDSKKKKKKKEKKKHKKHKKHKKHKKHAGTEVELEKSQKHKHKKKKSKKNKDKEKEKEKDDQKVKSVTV
UniProt Q93008: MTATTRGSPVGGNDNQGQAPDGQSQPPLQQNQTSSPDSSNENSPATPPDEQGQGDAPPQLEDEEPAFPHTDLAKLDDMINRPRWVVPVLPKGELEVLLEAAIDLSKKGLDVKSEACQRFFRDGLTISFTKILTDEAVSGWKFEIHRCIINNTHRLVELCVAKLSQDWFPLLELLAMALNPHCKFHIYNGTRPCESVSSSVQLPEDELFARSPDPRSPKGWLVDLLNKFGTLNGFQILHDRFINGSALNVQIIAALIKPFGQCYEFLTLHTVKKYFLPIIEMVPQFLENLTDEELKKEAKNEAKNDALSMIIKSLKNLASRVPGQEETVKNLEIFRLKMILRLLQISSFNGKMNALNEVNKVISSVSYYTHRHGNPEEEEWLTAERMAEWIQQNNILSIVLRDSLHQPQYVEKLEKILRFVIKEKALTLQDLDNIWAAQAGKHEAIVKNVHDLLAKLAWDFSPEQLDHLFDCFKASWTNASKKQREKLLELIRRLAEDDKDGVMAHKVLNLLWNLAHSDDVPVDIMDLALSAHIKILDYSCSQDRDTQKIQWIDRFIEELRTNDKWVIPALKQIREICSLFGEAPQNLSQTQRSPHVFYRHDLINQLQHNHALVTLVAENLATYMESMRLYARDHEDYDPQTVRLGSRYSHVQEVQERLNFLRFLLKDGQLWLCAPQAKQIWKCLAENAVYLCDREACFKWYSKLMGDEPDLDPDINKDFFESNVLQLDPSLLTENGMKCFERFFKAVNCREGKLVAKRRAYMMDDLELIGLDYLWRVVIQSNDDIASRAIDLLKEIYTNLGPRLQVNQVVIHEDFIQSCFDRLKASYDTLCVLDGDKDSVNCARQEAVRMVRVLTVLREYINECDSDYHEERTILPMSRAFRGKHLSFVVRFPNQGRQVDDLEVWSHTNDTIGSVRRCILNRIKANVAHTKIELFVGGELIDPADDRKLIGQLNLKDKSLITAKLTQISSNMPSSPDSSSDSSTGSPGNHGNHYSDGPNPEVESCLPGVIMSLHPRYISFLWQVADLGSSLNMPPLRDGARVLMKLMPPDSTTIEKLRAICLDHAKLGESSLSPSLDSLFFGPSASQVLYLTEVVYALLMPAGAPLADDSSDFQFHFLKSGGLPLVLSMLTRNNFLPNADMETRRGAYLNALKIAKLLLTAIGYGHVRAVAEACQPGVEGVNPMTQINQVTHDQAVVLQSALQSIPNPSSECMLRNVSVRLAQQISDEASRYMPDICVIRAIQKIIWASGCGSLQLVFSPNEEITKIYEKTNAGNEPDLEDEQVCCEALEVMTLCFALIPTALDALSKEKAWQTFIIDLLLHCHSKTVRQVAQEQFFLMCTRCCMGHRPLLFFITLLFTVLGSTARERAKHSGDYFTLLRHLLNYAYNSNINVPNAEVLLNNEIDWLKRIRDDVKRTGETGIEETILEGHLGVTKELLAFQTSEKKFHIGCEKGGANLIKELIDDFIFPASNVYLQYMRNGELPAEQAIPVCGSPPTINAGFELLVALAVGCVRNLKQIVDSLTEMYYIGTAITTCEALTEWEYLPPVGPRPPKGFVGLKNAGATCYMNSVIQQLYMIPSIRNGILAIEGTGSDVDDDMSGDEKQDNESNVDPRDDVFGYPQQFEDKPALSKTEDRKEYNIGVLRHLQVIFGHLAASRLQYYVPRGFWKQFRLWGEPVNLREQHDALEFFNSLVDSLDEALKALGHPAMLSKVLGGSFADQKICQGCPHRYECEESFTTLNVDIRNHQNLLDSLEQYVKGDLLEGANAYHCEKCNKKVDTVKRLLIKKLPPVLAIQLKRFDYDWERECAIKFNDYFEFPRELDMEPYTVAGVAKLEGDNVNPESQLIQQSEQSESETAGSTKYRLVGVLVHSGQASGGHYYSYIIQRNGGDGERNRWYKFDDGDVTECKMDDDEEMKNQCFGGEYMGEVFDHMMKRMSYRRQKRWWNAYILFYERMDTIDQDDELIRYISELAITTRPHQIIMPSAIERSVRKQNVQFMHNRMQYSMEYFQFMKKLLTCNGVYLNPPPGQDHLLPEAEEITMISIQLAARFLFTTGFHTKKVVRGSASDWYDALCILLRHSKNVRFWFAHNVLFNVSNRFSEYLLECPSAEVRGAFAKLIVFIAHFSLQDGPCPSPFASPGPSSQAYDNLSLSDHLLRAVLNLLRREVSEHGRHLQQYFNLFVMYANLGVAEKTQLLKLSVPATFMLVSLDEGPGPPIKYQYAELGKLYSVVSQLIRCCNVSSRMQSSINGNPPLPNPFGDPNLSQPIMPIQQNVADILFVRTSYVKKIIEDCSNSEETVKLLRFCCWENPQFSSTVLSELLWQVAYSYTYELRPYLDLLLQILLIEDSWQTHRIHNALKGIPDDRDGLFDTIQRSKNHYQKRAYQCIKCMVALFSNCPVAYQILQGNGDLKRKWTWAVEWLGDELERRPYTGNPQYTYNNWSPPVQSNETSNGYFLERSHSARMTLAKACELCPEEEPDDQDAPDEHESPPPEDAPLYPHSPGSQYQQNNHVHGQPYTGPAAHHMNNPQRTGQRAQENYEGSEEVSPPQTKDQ

Target: RELA (human (endogenous in TFE301-1)) (UniProt Q04206)
Experiment: affinity purification with mass spectrometry; IP of RELA from TFE301-1 cells with an anti-RELA antibody, compared with an IgG control; MS on a Q-Exactive

## HERC2 (from UniProt O95714 1-4834) (enzyme)
  binding: binds

## RBBP6 (from UniProt Q7Z6E9 1-1792) (enzyme)
  binding: binds

## UBR5 (from UniProt O95071 1-2799) (enzyme)
  binding: binds

## USP9X (from UniProt Q93008 1-2554) (enzyme)
  binding: binds
